LiHisRS: 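Enzyme assay of histidyl-tRNA synthetase; the read-out is not stated. Target: Histidine-tRNA ligase, Leishmania infantum (UniProt A4I591). Tested at 30 µM. Direction is inferred from retests: higher values go with stronger inhibition. The assay is labelled LdHisRS but filed under L. infantum. Size under these conditions: about 69,000 compounds, about 410 of them at 50% or above in at least one test.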
PfKRS1: 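Enzyme assay of the cytosolic lysyl-tRNA synthetase in 384-well plates, read by luminescence. Target: Lysine-tRNA ligase, Plasmodium falciparum 3D7 (UniProt Q8IDJ8). Compounds at 30 µM. Direction is inferred from only a few compounds that gave an IC50; most scored high, so higher reads as stronger inhibition. Of about 69,000 compounds tested this way, about 49 (0.071%) reached 50% or more in at least one test.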
TcHisRS: 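Enzyme assay of histidyl-tRNA synthetase; the read-out is not stated. Target: Histidine-tRNA ligase, Trypanosoma cruzi CL Brener (UniProt Q4DA54). Compounds at 30 µM. Direction is inferred from retests: higher values go with stronger inhibition. Size under these conditions: about 69,000 compounds, about 31 of them at 50% or above in at least one test.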

By UniProt entry, the sequences of proteins in these tests, tags left out. Residues count along the entry.
UniProt A4I591, 1-473: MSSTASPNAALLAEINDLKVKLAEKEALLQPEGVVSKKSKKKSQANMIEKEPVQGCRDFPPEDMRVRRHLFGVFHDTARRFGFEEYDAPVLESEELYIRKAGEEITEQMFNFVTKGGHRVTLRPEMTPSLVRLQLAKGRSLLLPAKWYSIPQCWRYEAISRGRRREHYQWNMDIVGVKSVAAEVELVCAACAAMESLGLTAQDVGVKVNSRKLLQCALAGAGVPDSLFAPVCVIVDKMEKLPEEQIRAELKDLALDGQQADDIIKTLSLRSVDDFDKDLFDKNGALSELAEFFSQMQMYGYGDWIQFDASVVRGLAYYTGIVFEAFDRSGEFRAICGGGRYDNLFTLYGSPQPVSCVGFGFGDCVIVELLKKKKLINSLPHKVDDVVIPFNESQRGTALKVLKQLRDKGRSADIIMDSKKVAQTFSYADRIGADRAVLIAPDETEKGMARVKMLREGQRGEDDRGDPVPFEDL
UniProt Q8IDJ8, 1-583: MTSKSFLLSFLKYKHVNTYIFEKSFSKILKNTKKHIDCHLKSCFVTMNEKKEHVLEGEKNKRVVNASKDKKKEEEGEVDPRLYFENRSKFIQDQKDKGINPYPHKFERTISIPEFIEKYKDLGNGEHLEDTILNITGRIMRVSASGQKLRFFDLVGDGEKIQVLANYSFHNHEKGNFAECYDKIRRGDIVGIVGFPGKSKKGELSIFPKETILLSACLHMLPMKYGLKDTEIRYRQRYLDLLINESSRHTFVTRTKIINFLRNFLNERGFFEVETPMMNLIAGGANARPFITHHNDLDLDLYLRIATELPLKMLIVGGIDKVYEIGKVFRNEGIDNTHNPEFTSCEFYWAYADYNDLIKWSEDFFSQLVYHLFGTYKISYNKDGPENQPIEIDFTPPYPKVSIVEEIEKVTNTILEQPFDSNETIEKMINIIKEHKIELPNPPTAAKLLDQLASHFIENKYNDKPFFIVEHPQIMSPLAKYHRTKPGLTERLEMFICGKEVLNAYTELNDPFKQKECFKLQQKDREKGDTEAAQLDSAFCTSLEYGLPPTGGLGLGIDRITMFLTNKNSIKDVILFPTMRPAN
UniProt Q4DA54, 1-478: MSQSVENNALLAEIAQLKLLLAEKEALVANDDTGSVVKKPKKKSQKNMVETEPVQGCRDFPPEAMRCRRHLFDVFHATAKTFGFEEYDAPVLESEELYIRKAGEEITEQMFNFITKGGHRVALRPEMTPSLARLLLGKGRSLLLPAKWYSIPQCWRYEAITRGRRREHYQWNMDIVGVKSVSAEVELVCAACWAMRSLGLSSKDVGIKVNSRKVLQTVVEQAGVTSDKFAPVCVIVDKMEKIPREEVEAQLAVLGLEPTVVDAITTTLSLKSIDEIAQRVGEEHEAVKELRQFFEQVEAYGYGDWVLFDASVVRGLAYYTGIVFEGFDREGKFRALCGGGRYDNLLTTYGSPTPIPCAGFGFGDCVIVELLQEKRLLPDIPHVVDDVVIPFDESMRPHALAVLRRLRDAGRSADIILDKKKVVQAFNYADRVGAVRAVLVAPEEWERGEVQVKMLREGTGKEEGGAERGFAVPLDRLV

Each number is a percent effect as filed. How 0% and 100% were set is not recorded. Most values in the screen are low, and negative values occur. Compounds were drawn at random from those tested, without regard to their results.

With COC(=O)NCC(=O)N1CCC(c2nc3cc(F)ccc3[nH]2)CC1 the screen gave LiHisRS: 7.527%; PfKRS1: 0.2685%; TcHisRS: 4.712%.
With Cc1nn(C)c(C)c1C1CCCN1CCCC#N (stereo unspecified) the screen gave LiHisRS: 11.57%; PfKRS1: -0.4154%; TcHisRS: 0%.
With CC(C)Nc1n[nH]c2nc(C3CCN(C(=O)c4ccccn4)C3)ccc12 (stereo unspecified) the screen gave LiHisRS: 4.286%; PfKRS1: -0.862%; TcHisRS: -8.812%.
With CN(Cc1cn2c(n1)CN(C(=O)c1cccn1C)CC2)Cc1ccco1 the screen gave LiHisRS: 6.195%; PfKRS1: -2.38%; TcHisRS: 4.301%.
With Cc1nc(CN2CCCN(C(=O)c3ccn(C)c(=O)c3)CC2)cs1 the screen gave LiHisRS: 18.58%; PfKRS1: 2.803%; TcHisRS: 0.4425%.
With CS(=O)(=O)NCc1cn2c(n1)CN(C(=O)c1ccc[nH]1)CC2 the screen gave LiHisRS: 12.41%; PfKRS1: 8.234%; TcHisRS: 4.918%.
With CN(C)C(CNC(=O)NCCOc1ccccc1)c1ccco1 (stereo unspecified) the screen gave LiHisRS: 20.51%; PfKRS1: 1.25%; TcHisRS: 6.024%.
With O=C1CCCN1CCN1CC=C(c2cnn(C3CCS(=O)(=O)C3)c2)CC1 (stereo unspecified) the screen gave LiHisRS: 11.67%; PfKRS1: 5.613%; TcHisRS: 7.792%.
With C1CCN(CCOC2CCNC2)CC1 (stereo unspecified) the screen gave LiHisRS: 15.97%; PfKRS1: 5.763%; TcHisRS: 4.902%.
With CC[C@@]1(O)CCN(C(=O)c2ccsc2)C[C@H]1O the screen gave LiHisRS: 14.42%; PfKRS1: 8.455%; TcHisRS: 3.252%.
With Cc1sc(-n2cnnn2)c(C(=O)NC(C)C)c1C the screen gave LiHisRS: 8.696%; PfKRS1: -2.31%; TcHisRS: 3.96%.
With CN(CC1CCC1)C(=O)Nc1cccnc1-n1cncn1 the screen gave LiHisRS: 8.791%; PfKRS1: 2.23%; TcHisRS: 1.807%.
With Cc1nnc(CN(C)Cc2ccc(C(=O)Nc3sccc3C#N)cc2)o1 the screen gave LiHisRS: 14.67%; PfKRS1: 9.19%; TcHisRS: 8.671%.
With COCCN1C(=O)CC(N2CCN(c3ccc(OC)cc3)CC2)C1=O (stereo unspecified) the screen gave LiHisRS: 20.19%; PfKRS1: 0.8326%; TcHisRS: 2.439%.
With O=C(NCCCNC(=O)c1ccccc1)Nc1ccc(F)cc1F the screen gave LiHisRS: 4.494%; PfKRS1: 4.64%; TcHisRS: 4.523%.
With Cc1ccc(CNC(=O)c2cc(NC(=O)C3CC3)n(C)n2)o1 the screen gave LiHisRS: 12.07%; PfKRS1: 2.678%; TcHisRS: 4.348%.
With Cc1cc(NCCS(C)(=O)=O)n2nc(C)cc2n1 the screen gave LiHisRS: 14.29%; PfKRS1: 2.39%; TcHisRS: 9.184%.
With CCc1nc2n(n1)CC(NCc1cnn(Cc3ccccc3)c1)CC2 (stereo unspecified) the screen gave LiHisRS: 20.51%; PfKRS1: -0.4556%; TcHisRS: 7.692%.
With COc1ccc(OC)c(NC(=O)c2cc3c([nH]c2=O)CCCC3=O)c1 the screen gave LiHisRS: 5.747%; PfKRS1: 0.09146%; TcHisRS: 2.062%.
With Cc1cnc(C(=O)N2CCCC3(CCN(c4cnn(C)c4)C3=O)C2)cn1 (stereo unspecified) the screen gave LiHisRS: -14.52%; PfKRS1: 1.641%; TcHisRS: -9.649%.
With CC(C)c1nc2c(n1C)CCN(CC(=O)Nc1nncs1)C2 the screen gave LiHisRS: 7.143%; PfKRS1: 0.05624%; TcHisRS: 4.611%.
With CC(CN1CCCC1=O)NC(=O)c1cc(=O)[nH]c2ccc(Cl)cc12 (stereo unspecified) the screen gave LiHisRS: 24.69%; PfKRS1: 4.824%; TcHisRS: 6.748%.
With Cc1cnc(C(=O)N2CCC3(CC2)C(=O)NCCN3CC(C)C)cn1 the screen gave LiHisRS: 10.53%; PfKRS1: 0.3422%; TcHisRS: 3.448%.
With O=C(NCCN1CCCCCC1)c1coc(COc2ccc(F)cc2)n1 the screen gave LiHisRS: 18.18%; PfKRS1: 2.547%; TcHisRS: 26.46%.

Repeated from the top, 2 entries:

- COC(=O)NCC(=O)N1CCC(c2nc3cc(F)ccc3[nH]2)CC1 : LiHisRS: 7.527%; PfKRS1: 0.2685%; TcHisRS: 4.712%
- Cc1nn(C)c(C)c1C1CCCN1CCCC#N (stereo unspecified) : LiHisRS: 11.57%; PfKRS1: -0.4154%; TcHisRS: 0%

Source: ChEMBL document CHEMBL3988442, “University of Dundee, Small-Polar-MMV Screening Library” (2021).